Data as given in PubChem BioAssay AID1224826 (NIAID, 2016).
Shown is an unselected part of about 17,000 deposited reagents. About 1,110 of them (6.6%) were called active. 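Active means lowered or raised reporter signal; replicate intensities are raw and not normalised per plate.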 Unmarked entries are inactive. The numbers tell different reagents against one gene apart.

Screen: 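Knock-downs that raise or lower Tnf reporter signal after endotoxin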 (primary screen)
Cell system: RAW264.7 G9 macrophages from mouse bearing reporters for p65 (GFP) and the Tnf promoter (mCherry)
Knock-down reagent: siRNA pool against mouse genes, 100 nM
Timing: 16 h of LPS stimulation, after 2 days of siRNA transfection
Challenge: bacterial lipopolysaccharide (Salmonella minnesota R595), 10 ng/ml
Measurement: 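Nuclear mCherry signal of the Tnf promoter reporter measured by imaging after background removal, scaled to each plate median and turned into robust z-scores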
Direction: Tnf reporter robust z-score: higher = stronger Tnf promoter reporter signal after LPS; Tnf reporter intensity: higher = stronger Tnf promoter reporter signal
Call rule: 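a well counts as active at a score of -1.3 or below (Tlr4 knock-down control median) or above 3 (raised signal); controls and wells holding fewer than 50 cells are excluded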
Meaning of the calls: active = Tnf reporter clearly lowered or raised; inactive = no clear change in Tnf reporter

target,reagent,Tnf reporter robust z-score,fewer than 50 cells in well,"Tnf reporter intensity, replicate 1","Tnf reporter intensity, replicate 2"
Itgb1bp2,1,-0.72,enough cells in well,219,86.6
Prl8a1,1,-0.31,enough cells in well,92.3,140
A730049H05Rik,1,-0.85,enough cells in well,133,130
Rhod,1,0.45,enough cells in well,322,258
Ankrd40,1,-0.64,enough cells in well,195,115
Or1e29,1,-0.64,enough cells in well,192,60
Fgf5,1,-0.21,enough cells in well,234,223
Fam120c,1,0.32,enough cells in well,115,194
Ankrd27,1,-0.9,enough cells in well,163,112
Polk,1,,fewer than 50 cells per well; well left out of calls,48.4,76.4
Adam9,1,0.03,enough cells in well,245,120
Dxo,1,-0.08,enough cells in well,183,154
S100a7a,1,-0.72,enough cells in well,219,166
Prkab2,1,-0.17,enough cells in well,98.1,146
Or5au1,1,-0.28,enough cells in well,183,95.6
Pced1a,1,-1.05,enough cells in well,128,79.7
Ubash3b,1,1.48,enough cells in well,256,79.6
Arhgef10l,1,0.39,enough cells in well,195,65.9
Klrc3,1,0.72,enough cells in well,249,156
Mepe,1,0.59,enough cells in well,215,186
Zfp60,1,-0.14,enough cells in well,116,103
Zfp60,2,0.61,enough cells in well,162,181
Cyp2s1,1,1.23,enough cells in well,277,233
Shbg,1,1.94,enough cells in well,473,347

2 entries already listed, sorted by “Tnf reporter intensity, replicate 1”, lowest first.
target,reagent,Tnf reporter robust z-score,fewer than 50 cells in well,"Tnf reporter intensity, replicate 1","Tnf reporter intensity, replicate 2"
Zfp60,2,0.61,enough cells in well,162,181
Cyp2s1,1,1.23,enough cells in well,277,233
